Publication PMC4441422
Results are given in words; binding and its absence hold for the method and conditions named.

Target: T1, full-length catalytic domain of human N-myristoyltransferase 1 (hNMT1s) (human) (UniProt P30419)
T1 sequence: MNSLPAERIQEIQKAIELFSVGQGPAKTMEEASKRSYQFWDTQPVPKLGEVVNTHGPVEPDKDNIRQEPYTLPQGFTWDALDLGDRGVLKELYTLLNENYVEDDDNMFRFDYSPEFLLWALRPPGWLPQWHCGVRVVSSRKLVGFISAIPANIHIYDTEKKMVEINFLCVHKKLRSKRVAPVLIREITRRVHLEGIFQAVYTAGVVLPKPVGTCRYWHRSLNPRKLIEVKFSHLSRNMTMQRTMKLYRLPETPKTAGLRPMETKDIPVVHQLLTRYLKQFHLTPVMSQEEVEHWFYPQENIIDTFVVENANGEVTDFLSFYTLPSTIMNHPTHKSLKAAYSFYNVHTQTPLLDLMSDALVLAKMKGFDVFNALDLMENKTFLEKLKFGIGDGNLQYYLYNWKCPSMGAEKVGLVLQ
Test: SEC; Superdex 75 gel filtration, 50 mM sodium phosphate pH 7.2, 150 mM NaCl, 1 mM EGTA, 1 mM EDTA; elution compared with ovalbumin (43.0 kDa); both purified

B1: full-length catalytic domain of human N-myristoyltransferase 1 (hNMT1s) (domain or fragment, UniProt P30419 81-496)
chain: T1 sequence
Q: With B1 as the binder, how does the binding read?
A: no binding
